According to PubChem BioAssay AID2685 (National Center for Advancing Translational Sciences (NCATS), 2010):
In all, about 320,000 compounds went through this assay and about 2,100 (0.66%) were called active. The shares of active, inactive and inconclusive entries below differ from those in the screen. Calls come from the whole dose curve; as a rule, active = well fitted inhibition curve with a large enough effect in the signal ratio, with a control signal flat (not every such curve was filed as active); inconclusive = small, poorly fitted or top-dose-only effect, or effect the other way, or a change in a side signal; inactive = flat fitted curve, though single readings scatter; the % refers to the signal ratio. Potencies of inconclusive entries are doubtful fits and often do not repeat.
% is set by controls: 0 for no effect and ±100 for the full control effect; potency is the fitted concentration of half-maximal effect.

Test: qHTS Assay for Lipid Storage Modulators in Drosophila S3 Cells
Conditions: BODIPY lipid droplet fluorescence, 18-24 h, cells fed with added oleic acid; lipid storage change, negative = inhibition: at 46.1 µM (top of the series) unless noted
Summary of the method: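 Drosophila S3 cells loaded with oleic acid (400 uM, as added) and compounds at several concentrations; lipid droplets imaged by 488-nm laser-scanning cytometry, 500–530 nm intensity and object ratio to cell channel. Percent activity normalized to 20 uM Triacsin C.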
With `CC(NC(=O)c1cc2cc(Cl)ccc2oc1=N)c1ccccc1` (configuration not stated) the lipid storage change, negative = inhibition was inconclusive: -100%. With `Cc1ccc(OCC(=O)O/N=C(\N)c2cccnc2)cc1` the lipid storage change, negative = inhibition was inconclusive: 28.8%. With `CC(C)(C)NCC(O)COc1c(F)cc(Br)cc1F` (configuration not stated) the Potency was active: 29.1 µM. With `O=C(O)c1c[nH]ccc1=O` the lipid storage change, negative = inhibition was inconclusive: 10.4%. In the case of `Cc1nn(-c2ccccc2)c(Cl)c1C(=O)OC(C)C(=O)Nc1ccc2c(c1)OCO2` (configuration not stated), the Potency is reported as inconclusive: 0.326 µM [activator, full curve]. For `O=C(C/C=N\OCc1ccc([N+](=O)[O-])cc1)Nc1ccccc1`, the Potency was inconclusive: 0.092 µM [cytotoxic, full curve]. With `O=C(NCc1ccc(F)cc1)c1cccc2c1C(=O)c1ccc(Cl)cc1S2(=O)=O` the lipid storage change, negative = inhibition was inconclusive: -49.4%. For `Cc1ccccc1CN(C)CC(=O)NC(C)CCc1ccccc1` (configuration not stated), the lipid storage change, negative = inhibition was inconclusive: 9.61%. With `CCN(CC)S(=O)(=O)c1cccc(-c2nn(-c3ccccc3)cc2/C=C(\C#N)C(=O)NCc2ccco2)c1` the lipid storage change, negative = inhibition was inconclusive: 21.9%. With `O=C(/C=C/c1ccco1)Nc1ccc(Cl)c(S(=O)(=O)N2CCOCC2)c1` the lipid storage change, negative = inhibition was inconclusive: -14.8%. For `O=C(NCCN1CCOCC1)c1ccncc1`, the “outcome” value was “inactive [at 46.1 µM]”. For `CC(C)(C)OC(=O)N1CCC[C@H]1c1nnc(SC/C=C/c2ccccc2)o1`, the Potency was inconclusive: 32.6 µM [falling, single point]. In the case of `Cc1cccc(C(=O)N[C@H](C(=O)OCC(=O)NC(=O)c2cccn2C)C(C)C)c1`, the lipid storage change, negative = inhibition is reported as inconclusive: 18.3%. In the case of `CN(C(=O)CSc1nc(C2CC2)nc2ccccc12)c1nc(-c2ccccc2)cs1`, the Potency is reported as inconclusive: 0.651 µM [activator, full curve, poor fit]. In the case of `O=C(c1ccco1)N1CCN(C(c2ccc(F)cc2)c2nnnn2Cc2cccs2)CC1` (configuration not stated), the lipid storage change, negative = inhibition is reported as inconclusive: 20.3%. With `CCOC(=O)c1c(CC(C)C)csc1/N=C/C1C(=O)CC(C)(C)CC1=O` the lipid storage change, negative = inhibition was inconclusive: 13.8%. In the case of `O=C(O)c1ccc(S(=O)(=O)/N=C2\C=C(Nc3ccccc3F)C(=O)c3ccccc32)cc1`, the Potency is reported as active: 6.51 µM. For `O=c1oc2ccccc2c(Nc2cccc3cccnc23)c1[N+](=O)[O-]`, the lipid storage change, negative = inhibition was inconclusive: -49.2%. For `COc1cc(OC)cc(C(=O)NC2CCN(C(=O)N3c4ccccc4Sc4ccccc43)CC2)c1`, the lipid storage change, negative = inhibition was inconclusive: -19.5%. For `COc1ccccc1COCC(O)CN(Cc1ccco1)Cc1ccccc1O` (configuration not stated), the Potency was inconclusive: 20.6 µM [activator, single point]. With `CCN(CC)S(=O)(=O)c1ccc(Cl)c(C(=O)OC)c1` the lipid storage change, negative = inhibition was inconclusive: 16.9%. In the case of `O=[N+]([O-])c1ccccc1S(=O)(=O)Nc1cccc(-c2ccc3nncn3n2)c1`, the lipid storage change, negative = inhibition is reported as “inconclusive”. For `CSc1ccccc1C(=O)N1CCC(n2nccc2NC(=O)C(C)(C)C)CC1`, the lipid storage change, negative = inhibition was inconclusive: 7.59%. For `CCOC(=O)CSC1=C(C#N)C(c2ccccc2OCC)C(C#N)C(=O)N1` (configuration not stated), the lipid storage change, negative = inhibition was inconclusive: 23.8%. In the case of `COc1ccc(C(=O)[C@H]2[C@H]3C(=O)N(c4ccc(OC(C)=O)cc4)C(=O)[C@H]3C3C=CC=NN32)cc1` (some centres not stated), the lipid storage change, negative = inhibition is reported as inconclusive: 12.9%. With `FC(F)Oc1ccc(NC(=S)NCc2nc3ccccc3[nH]2)cc1` the lipid storage change, negative = inhibition was inconclusive: -37.8% [at 0.00295 µM]. For `CCn1c(=O)n(CC)c2cc(N3CCCC3)c(NC(=O)c3ccc(C)c([N+](=O)[O-])c3)cc21`, the lipid storage change, negative = inhibition was inconclusive: 20.7%. In the case of `O=C(CSc1nc2ccccc2c(=O)n1Cc1ccccc1)Nc1ccc(Br)cc1C(=O)O`, the Potency is reported as inconclusive: 0.651 µM [activator, full curve, poor fit]. With `COc1cc(C(=O)Nc2ccc3c(c2)OCO3)ccc1OCc1c(C)noc1C` the Potency was inconclusive: 0.146 µM [rising, single point]. For `CC(C)(C)n1nc2c(c1NC(=O)c1ccccc1C(F)(F)F)CS(=O)(=O)C2`, the lipid storage change, negative = inhibition was inconclusive: 20.6%. In the case of `CC1CCN(S(=O)(=O)N2CCC(C(=O)NCc3cccs3)CC2)CC1`, the lipid storage change, negative = inhibition is reported as inconclusive: 29.8%. For `CC(C)(C)n1ncc2c(=O)n(CC(=O)N3CCCCC3)cnc21`, the Potency was inconclusive: 6.51 µM [cytotoxic, single point]. With `Cc1ccccc1NC1=NCC(c2ccc([N+](=O)[O-])cc2)S1` (configuration not stated) the lipid storage change, negative = inhibition was inconclusive: 4.37%. In the case of `O=C(CSc1nc2ccccc2n1CC(=O)NCc1ccccc1)NCc1ccco1`, the lipid storage change, negative = inhibition is reported as inconclusive: 6.16%. In the case of `Cc1ccc2nc(CSc3nnc(Cc4cccs4)n3C3CCCCC3)cc(=O)n2c1`, the Potency is reported as inconclusive: 0.651 µM [activator, full curve]. With `Cc1cc(C)cc(N(CC(=O)NC(C)(C)C)C(=O)CCC(=O)Nc2ccccn2)c1` the Potency was inconclusive: 14.6 µM [activator, partial curve]. With `CCOC(=O)N1CCN(C(=O)Nc2ccc3nc(-c4ccccn4)c(-c4ccccn4)nc3c2)CC1` the Potency was inconclusive: 20.6 µM [falling, partial curve]. In the case of `CSCCC(NC(=O)c1ccco1)C(=O)NCC(C)(C)N1CCOCC1` (configuration not stated), the lipid storage change, negative = inhibition is reported as inconclusive: 2.01%. With `COc1ccccc1/C=C/C(=O)OCC(=O)NC1CC1` the lipid storage change, negative = inhibition was inconclusive: 4.4%. In the case of `CCc1cc(C(=O)N2CCCC(Nc3ccc(F)c(F)c3)C2)n(C)n1` (configuration not stated), the lipid storage change, negative = inhibition is reported as inconclusive: -7.5%. With `COc1cccc(NC(=O)CSc2nc3ccccc3nc2N2CCOCC2)c1` the Potency was inconclusive: 16.4 µM [falling, partial curve, poor fit]. With `Cc1cc(C)c(C#N)c(SCC(=O)C(C)(C)C)n1` the lipid storage change, negative = inhibition was inconclusive: -33.1%. For `O=C(c1cc(Cl)ccc1Cl)N1CCOCC1`, the lipid storage change, negative = inhibition was inconclusive: 0.0534%. For `O=S(=O)(N1CCOCC1)n1nnc2ccccc21`, the lipid storage change, negative = inhibition was inconclusive: -8.35%. With `CC1(C)CC(=O)C2=C(C1)Nc1ccccc1NC2` the lipid storage change, negative = inhibition was inconclusive: 8.9%. For `CC1CCCCC12NC(=O)N(CC(=O)Nc1sccc1C(N)=O)C2=O` (configuration not stated), the lipid storage change, negative = inhibition was inconclusive: 9.42%. In the case of `CC(=O)Nc1cccc(C(=O)/C=C/c2ccc(/C=C/C(=O)c3cccc(NC(C)=O)c3)cc2)c1`, the Potency is reported as active: 8.2 µM. In the case of `CCOc1ccc(S(=O)(=O)N2CCNC(=O)C2)cc1`, the lipid storage change, negative = inhibition is reported as inconclusive: -2.84%. With `CCOC(=O)C1=C(N)N2C(=O)C(C)SC2=C(C(=O)OC)C1c1cccc(OC)c1` (configuration not stated) the lipid storage change, negative = inhibition was inconclusive: 76.5%. With `COc1nc(Cc2ccc(Cl)cc2)nc2ccccc12` the lipid storage change, negative = inhibition was inconclusive: 12.6%. In the case of `Cc1nc2ccccc2c(=O)n1C1CCCCCC1`, the lipid storage change, negative = inhibition is reported as inconclusive: 40.9%. For `Cc1nn(-c2ccc(N3CCOCC3)nn2)c(C)c1CCC(=O)Nc1ccccc1`, the lipid storage change, negative = inhibition was inconclusive: 7.62%. In the case of `Cc1ccc(NC(=O)c2cc(C)nc3ccccc23)cc1`, the lipid storage change, negative = inhibition is reported as inconclusive: -47.1%. With `CC(C)Oc1cccc(C(=O)NC(=S)Nc2ccc3c4c(cccc24)CC3)c1` the lipid storage change, negative = inhibition was inconclusive: -28%. With `O=C(Nc1ccc(C(=O)N2CCCCC2)cc1)c1ccc(Br)cc1` the lipid storage change, negative = inhibition was inconclusive: -30.3%. For `CCCCNC(=S)NNC(=O)c1ccc(Br)o1`, the lipid storage change, negative = inhibition was inconclusive: 23.1%. For `O=C(c1cnn2c(C(F)(F)F)cc(-c3ccco3)nc12)N1CCCc2ccccc21`, the lipid storage change, negative = inhibition was inconclusive: -2.69%. For `Cc1nn(CC(=O)O)c(C)c1Cl`, the Potency was inconclusive: 0.13 µM [falling, full curve, poor fit]. With `CCOC(=O)c1cnc(SCC(C)C)nc1N` the lipid storage change, negative = inhibition was inconclusive: -30.3%. In the case of `CCCC(C)NC(=O)Cc1ccc(Br)cc1` (configuration not stated), the Potency is reported as inconclusive: 2.31 µM [falling, partial curve]. With `O=C(CN(CCCN1CCOCC1)C(=O)Cn1nnc(-c2ccc(F)cc2)n1)NC1CCCCC1` the Potency was inconclusive: 3.26 µM [falling, full curve]. In the case of `CNC(=S)N/N=C/c1cn(Cc2ccc(C)cc2)c2ccccc12`, the lipid storage change, negative = inhibition is reported as inconclusive: -17.9%. In the case of `CC12CCC(C(=O)NNc3ccc([N+](=O)[O-])cc3)(CC1=O)C2(C)C` (configuration not stated), the lipid storage change, negative = inhibition is reported as inconclusive: 3.15%. With `COc1ccc(-n2nc3ccc(N)cc3n2)cc1Cl` the lipid storage change, negative = inhibition was inconclusive: -35.3%. For `CC1(C)CC(n2c(NCCO)nc3c(c2=O)C2(CCCC2)Cc2ccccc2-3)CCO1` (configuration not stated), the Potency was inconclusive: 0.116 µM [falling, full curve]. For `Cc1onc(-c2c(F)cccc2Cl)c1C(=O)OCC(=O)Nc1c(C)n(C)n(-c2ccccc2)c1=O`, the Potency was inconclusive: 18.4 µM [falling, single point]. With `CCN(CC)CCN(C(=O)c1ccc(S(=O)(=O)N(CC)c2ccccc2)cc1)c1nc2c(OC)ccc(OC)c2s1` the lipid storage change, negative = inhibition was inconclusive: 13%. In the case of `CCOc1cc(/C=N/O)ccc1OCC(=O)Nc1cccc(C)c1`, the lipid storage change, negative = inhibition is reported as inconclusive: 47%. For `Cc1ccc2c(CC(=O)NCc3ccc4c(c3)OCO4)coc2c1`, the Potency was inconclusive: 29.1 µM [activator, single point]. With `O=C(CSc1ccccn1)Nc1ccc(Cl)cn1` the Potency was inconclusive: 0.0103 µM [falling, full curve, poor fit]. In the case of `O=C(COc1ccc(S(=O)(=O)N2CCOCC2)cc1)NCCN1CCOCC1`, the lipid storage change, negative = inhibition is reported as inconclusive: -4.51%. With `O=C(CSc1n[nH]c(-c2ccccc2F)n1)Nc1cc(F)ccc1F` the Potency was inconclusive: 29.1 µM [falling, partial curve, poor fit]. In the case of `CC1CCN(C(=O)C2CCC(=O)N(Cc3ccc(Cl)cc3)C2)CC1` (configuration not stated), the lipid storage change, negative = inhibition is reported as inconclusive: 13.5%. With `N#Cc1ccc(Oc2ccc(S(=O)(=O)N3CCCC3)cn2)cc1` the lipid storage change, negative = inhibition was “inconclusive”. In the case of `COC(=O)c1cc2c(ccn2-c2ccc(F)cc2)n1CC(=O)C(C)(C)C`, the Potency is reported as inconclusive: 16.4 µM [falling, partial curve, poor fit]. For `O=C(Nc1cccn2ncnc12)c1cccc(C(F)(F)F)c1`, the lipid storage change, negative = inhibition was inconclusive: -13.9%. In the case of `O=C(O)C1C2C=CC(C2)C1C(=O)Nc1ccc(C(=O)N2CCCCC2)cc1` (configuration not stated), the Potency is reported as inconclusive: 10.3 µM [activator, single point].
